# Experimental data as given in publication PMC13203959, “New inhibitors of the Pseudomonas aeruginosa enzyme, PqsE, and methods assessing their potential to induce a conformational change via active site binding” (mSphere, 2026).
# By UniProt entry, the sequences of proteins in these tests, tags left out.
# UniProt P20581: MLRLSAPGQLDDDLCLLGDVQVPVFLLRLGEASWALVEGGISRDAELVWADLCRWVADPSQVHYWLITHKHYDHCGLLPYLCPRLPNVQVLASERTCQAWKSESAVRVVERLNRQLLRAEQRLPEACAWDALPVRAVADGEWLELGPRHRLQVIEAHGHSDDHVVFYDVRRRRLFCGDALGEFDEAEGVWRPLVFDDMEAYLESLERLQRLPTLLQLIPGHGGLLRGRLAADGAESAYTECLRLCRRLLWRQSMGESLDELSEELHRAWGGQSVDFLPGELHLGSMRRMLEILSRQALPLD
# UniProt P54292: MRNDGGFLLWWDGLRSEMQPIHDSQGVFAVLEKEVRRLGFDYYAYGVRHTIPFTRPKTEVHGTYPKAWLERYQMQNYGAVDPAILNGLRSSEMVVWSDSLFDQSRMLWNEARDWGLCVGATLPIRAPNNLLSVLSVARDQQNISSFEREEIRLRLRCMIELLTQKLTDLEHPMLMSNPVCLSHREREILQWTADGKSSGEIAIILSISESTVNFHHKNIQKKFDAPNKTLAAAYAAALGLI
# Results are given in words; binding and its absence hold for the method and conditions named. Binding seen in cells or lysates may run through a third protein. Some entries that bind do so weakly or less than the wild type.
# Biological target: 6xHis-PqsE(WT) (Pseudomonas aeruginosa) (UniProt P20581)
# Assay: pull-down; purified 6xHis-PqsE(WT) (1 uM final), pre-incubated 10 min with DMSO, HJ1 or HJ5 (up to 100 uM), added to RhlR-containing E. coli lysate in 50 mM Tris-HCl, 150 mM NaCl, 20 mM imidazole, pH 8.0; 4°C; captured on MagneHis Ni resin, eluted with 500 mM imidazole, SDS-PAGE; only the target purified
substance,measurement,value
RhlR (from UniProt P54292 1-241) (receptor),binding,binds
